Measurements taken from PMC7378894.
These are yes or no findings as the source states them, for the method shown. In cells and extracts the contact can be indirect. Here binding means that the protein was enriched with, or labelled near, the bait; the list need not be complete.

By UniProt entry, the sequences of proteins in these tests, tags left out.
UniProt O75626: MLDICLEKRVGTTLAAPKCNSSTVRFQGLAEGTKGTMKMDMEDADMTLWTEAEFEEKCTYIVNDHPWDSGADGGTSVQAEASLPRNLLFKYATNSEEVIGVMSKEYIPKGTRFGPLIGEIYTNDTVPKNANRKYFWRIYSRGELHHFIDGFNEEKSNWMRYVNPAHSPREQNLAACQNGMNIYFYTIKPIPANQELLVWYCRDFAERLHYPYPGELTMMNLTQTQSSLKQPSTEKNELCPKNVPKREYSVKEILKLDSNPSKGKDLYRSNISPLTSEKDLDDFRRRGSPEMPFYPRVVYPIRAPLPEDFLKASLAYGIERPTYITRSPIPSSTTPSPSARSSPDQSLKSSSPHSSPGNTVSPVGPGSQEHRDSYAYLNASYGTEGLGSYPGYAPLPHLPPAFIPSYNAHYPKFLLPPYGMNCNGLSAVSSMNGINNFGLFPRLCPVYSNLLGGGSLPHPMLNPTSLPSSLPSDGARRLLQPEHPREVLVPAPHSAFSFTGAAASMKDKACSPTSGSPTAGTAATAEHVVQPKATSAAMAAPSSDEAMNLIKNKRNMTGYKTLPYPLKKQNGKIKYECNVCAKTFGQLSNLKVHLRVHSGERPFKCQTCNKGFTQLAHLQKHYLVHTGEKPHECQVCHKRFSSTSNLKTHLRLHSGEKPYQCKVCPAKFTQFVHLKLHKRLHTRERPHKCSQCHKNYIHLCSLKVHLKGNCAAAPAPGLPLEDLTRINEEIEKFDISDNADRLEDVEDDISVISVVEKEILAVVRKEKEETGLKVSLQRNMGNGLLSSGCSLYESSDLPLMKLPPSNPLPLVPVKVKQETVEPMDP

Molecular target: Positive regulatory domain 1 (PRDM1) in monocyte derived-dendritic cells (human (endogenous in MO-DCs)) (UniProt O75626)
Test: affinity purification with mass spectrometry; iTRAQ MS of the nuclear fraction of MO-DCs immunoprecipitated by PRDM1 antibody, compared with control IgG, cutoff >1.5-fold

binding: binds
B1: non-POU domain-containing octamer-binding protein (NonO) in monocyte derived-dendritic cells (protein, UniProt Q15233 1-471)
chain: MQSNKTFNLEKQNHTPRKHHQHHHQQQHHQQQQQQPPPPPIPANGQQASSQNEGLTIDLKNFRKPGEKTFTQRSRLFVGNLPPDITEEEMRKLFEKYGKAGEVFIHKDKGFGFIRLETRTLAEIAKVELDNMPLRGKQLRVRFACHSASLTVRNLPQYVSNELLEEAFSVFGQVERAVVIVDDRGRPSGKGIVEFSGKPAARKALDRCSEGSFLLTTFPRPVTVEPMDQLDDEEGLPEKLVIKNQQFHKEREQPPRFAQPGSFEYEYAMRWKALIEMEKQQQDQVDRNIKEAREKLEMEMEAARHEHQVMLMRQDLMRRQEELRRMEELHNQEVQKRKQLELRQEEERRRREEEMRRQQEEMMRRQQEGFKGTFPDAREQEIRMGQMAMGGAMGINNRGAMPPAPVPAGTPAPPGPATMMPDGTLGLTPPTTERFGQAATMEGIGAIGGTPPAFNRAAPGAEFAPNKRRRY
